# Measurements from the supplement of paper PMC4604168 (melanoma cell lines).
# The list shows a part of the results. Repeats are few or missing, and single values can be far off.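 Cells were imaged in 1,536-well plates, and nuclei stained with an antibody against cleaved PARP were counted against all DNA-stained nuclei to give the apoptosis fraction. Screening doses were chosen to leave most cells alive, and resting and induced cleaved-PARP levels differ strongly between cell lines.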
# Legend:
# Test in all cases: cleaved PARP positive nuclei fraction relative to DMSO control; melanoma cells; higher = more apoptosis
# Details in all cases: library dose: low library concentration; 72 h
# [1] = tested on: WM115
# [2] = tested on: WM1716
# [3] = tested on: WM1745
# [4] = tested on: WM3526
# [5] = tested on: WM3619
# [6] = tested on: WM451Lu
Structure (SMILES),cleaved PARP positive nuclei fraction [1],cleaved PARP positive nuclei fraction [2],cleaved PARP positive nuclei fraction [3],cleaved PARP positive nuclei fraction [4],cleaved PARP positive nuclei fraction [5],cleaved PARP positive nuclei fraction [6]
"NC(=O)c1ccc(N(C(N)=O)c2c(F)cccc2F)nc1-c1ccc(F)cc1F + Cc1nc(Nc2ncc(C(=O)Nc3c(C)cccc3Cl)s2)cc(N2CCN(CCO)CC2)n1 [dasatanib] (first compound 0.4 µM, partner dose 0.004 µM)",140%,31.1%,120%,395%,104%,130%
"COc1ccc(C2=N[C@@H](c3ccc(Cl)cc3)[C@@H](c3ccc(Cl)cc3)N2C(=O)N2CCNC(=O)C2)c(OC(C)C)c1 [Nutlin-3] + Cn1c(=O)n(-c2ccc(C(C)(C)C#N)cc2)c2c3cc(-c4cnc5ccccc5c4)ccc3ncc21 [NVP-BEZ235] (first compound 0.1 µM, partner dose 0.004 µM)",144%,250%,89.7%,80%,92%,43.1%
"C[C@]1(O)C[C@@H](c2nc(-c3ccc4ccc(-c5ccccc5)nc4c3)c3c(N)nccn32)C1 + COc1cc(Nc2ncc(F)c(Nc3ccc4c(n3)NC(=O)C(C)(C)O4)n2)cc(OC)c1OC [Tamatinib] (first compound 0.4 µM, partner dose 0.4 µM)",86%,123%,185%,96.2%,88.9%,121%
"CCCCCCCCc1ccc(CCC(N)(CO)CO)cc1 [fingolimod] + O=C(Nc1ccccc1)c1cc([N+](=O)[O-])ccc1Cl [GW9662] (first compound 2 µM, partner dose 2 µM)",53.6%,143%,126%,211%,115%,45.5%
"Cn1sc(=O)n(Cc2ccccc2)c1=O + COc1ccc2c(c1)CCC1C2CCC2(C)C(NCCCCCCN3C(=O)C=CC3=O)CCC12 [U73122] (first compound 0.4 µM, partner dose 0.4 µM)",118%,102%,97.6%,208%,108%,300%
"NC1(c2ccc(-c3nc4ccn5c(=O)[nH]nc5c4cc3-c3ccccc3)cc2)CCC1 + O=C(O)C(=O)Nc1sc2c(c1C(=O)O)CCNC2 [TCS401] (first compound 0.4 µM, partner dose 1.66667 µM)",124%,147%,119%,54.7%,100%,166%
"NC(=O)c1ccc(N(C(N)=O)c2c(F)cccc2F)nc1-c1ccc(F)cc1F + O=C(CCCCCCC(=O)Nc1ccccc1)NO [vorinostat] (first compound 0.4 µM, partner dose 0.08 µM)",247%,26.2%,81.6%,81%,83%,98.6%
"NC1(c2ccc(-c3nc4ccn5c(=O)[nH]nc5c4cc3-c3ccccc3)cc2)CCC1 + C[C@@H]1CCN(C(=O)CC#N)C[C@@H]1N(C)c1ncnc2[nH]ccc12 [CP690550] (first compound 0.4 µM, partner dose 1 µM)",388%,125%,112%,201%,125%,108%
"C[C@@H](N)c1ccc(C(=O)Nc2ccnc3[nH]ccc23)cc1 + Nc1ncn([C@H]2C[C@H](O)[C@@H](CO)O2)c(=O)n1 [decitabine] (first compound 0.4 µM, partner dose 0.1 µM)",125%,128%,112%,154%,94.4%,64.9%
"Cn1cnc2c(F)c(Nc3ccc(Br)cc3Cl)c(C(=O)NOCCO)cc21 [selumetinib] + CN(c1ncccc1CNc1nc(Nc2ccc3c(c2)CC(=O)N3)ncc1C(F)(F)F)S(C)(=O)=O [PF562271] (first compound 0.015 µM, partner dose 0.08 µM)",253%,147%,109%,55.9%,101%,52.8%
"CCCCCCCCc1ccc(CCC(N)(CO)CO)cc1 [fingolimod] + O=C(O)[C@@H]1[O][Sb](=[O])([O][Sb]2(=[O])[O][C@H]([C@H](O)CO)[C@H](O)[C@H](C(=O)O)[O]2)[O][C@H]([C@H](O)CO)[C@@H]1O [stibogluconate] (first compound 2 µM, partner dose 2 µM)",122%,38.7%,95.4%,294%,72.4%,103%
"NC(=O)c1ccc(N(C(N)=O)c2c(F)cccc2F)nc1-c1ccc(F)cc1F + COc1ccc2c(c1)CCC1C2CCC2(C)C(NCCCCCCN3C(=O)C=CC3=O)CCC12 [U73122] (first compound 0.4 µM, partner dose 0.4 µM)",76.8%,67%,117%,70.9%,105%,142%
"C[C@@H](N)c1ccc(C(=O)Nc2ccnc3[nH]ccc23)cc1 + COC(=O)c1sccc1S(=O)(=O)Nc1ccc(Nc2ccccc2)cc1OC [GSK0660] (first compound 0.4 µM, partner dose 1 µM)",53.2%,53.8%,96.1%,66.4%,94.5%,146%
"NC1(c2ccc(-c3nc4ccn5c(=O)[nH]nc5c4cc3-c3ccccc3)cc2)CCC1 + c1cc(-c2cnn3cc(-c4ccc(OCCN5CCCCC5)cc4)cnc23)ccn1 [Dorsomorphin] (first compound 0.4 µM, partner dose 0.4 µM)",133%,105%,97.5%,226%,134%,106%
"CCCCCCCCc1ccc(CCC(N)(CO)CO)cc1 [fingolimod] + CCc1ccc(CCOc2ccc(CC3SC(=O)NC3=O)cc2)nc1 [pioglitazone] (first compound 2 µM, partner dose 2 µM)",195%,63.3%,100%,190%,195%,88.7%
"Cn1cnc2c(F)c(Nc3ccc(Br)cc3Cl)c(C(=O)NOCCO)cc21 [selumetinib] + CN1CCN(c2ccc3nc(-c4c(N)c5c(F)cccc5[nH]c4=O)[nH]c3c2)CC1 [Dovitinib] (first compound 0.015 µM, partner dose 0.1 µM)",302%,294%,110%,117%,95.1%,44.8%
"CC(=O)O[C@@]12CO[C@@H]1C[C@H](O)[C@@]1(C)C(=O)[C@H](O)C3=C(C)[C@@H](OC(=O)[C@H](O)[C@@H](NC(=O)OC(C)(C)C)c4ccccc4)C[C@@](O)([C@@H](OC(=O)c4ccccc4)[C@H]21)C3(C)C [Docetaxel] + Nc1cccc2c1CN(C1CCC(=O)NC1=O)C2=O [lenalidomide] (first compound 0.0001 µM, partner dose 1 µM)",195%,63.9%,175%,151%,119%,105%
"Cn1sc(=O)n(Cc2ccccc2)c1=O + CC(=O)O[C@@]12CO[C@@H]1C[C@H](O)[C@@]1(C)C(=O)[C@H](O)C3=C(C)[C@@H](OC(=O)[C@H](O)[C@@H](NC(=O)OC(C)(C)C)c4ccccc4)C[C@@](O)([C@@H](OC(=O)c4ccccc4)[C@H]21)C3(C)C [Docetaxel] (first compound 0.4 µM, partner dose 0.0001 µM)",160%,167%,178%,72.7%,147%,153%
"COc1ccc(C2=N[C@@H](c3ccc(Cl)cc3)[C@@H](c3ccc(Cl)cc3)N2C(=O)N2CCNC(=O)C2)c(OC(C)C)c1 [Nutlin-3] + c1cc(-c2cnn3cc(-c4ccc(OCCN5CCCCC5)cc4)cnc23)ccn1 [Dorsomorphin] (first compound 0.1 µM, partner dose 0.4 µM)",197%,33.2%,93.7%,84%,105%,87.7%
"CC1(C)CCC(c2ccc(Cl)cc2)=C(CN2CCN(c3ccc(C(=O)NS(=O)(=O)c4ccc(N[C@H](CCN5CCOCC5)CSc5ccccc5)c(S(=O)(=O)C(F)(F)F)c4)cc3)CC2)C1 + Nc1ncn([C@H]2C[C@H](O)[C@@H](CO)O2)c(=O)n1 [decitabine] (first compound 0.4 µM, partner dose 0.1 µM)",315%,106%,181%,48.8%,122%,48.2%
"CC1(C)CCC(c2ccc(Cl)cc2)=C(CN2CCN(c3ccc(C(=O)NS(=O)(=O)c4ccc(N[C@H](CCN5CCOCC5)CSc5ccccc5)c(S(=O)(=O)C(F)(F)F)c4)cc3)CC2)C1 + NCC(=O)Nc1ccc(-n2nc(C(F)(F)F)cc2-c2ccc3c(ccc4ccccc43)c2)cc1 [OSU03012] (first compound 0.4 µM, partner dose 1 µM)",971%,501%,671%,345%,101%,588%
"CCN(CC)CCNC(=O)c1c(C)[nH]c(/C=C2\C(=O)Nc3ccc(F)cc32)c1C [sunitinib] + Cc1ccc(NC(=O)c2cccc(N(C)C)c2)cc1NC(=O)c1ccc(O)cc1 [ZM336372] (first compound 0.4 µM, partner dose 2 µM)",136%,48.6%,106%,188%,105%,50.1%

# As a short view, some entries already given:
Structure (SMILES),cleaved PARP positive nuclei fraction [1],cleaved PARP positive nuclei fraction [2],cleaved PARP positive nuclei fraction [3],cleaved PARP positive nuclei fraction [4],cleaved PARP positive nuclei fraction [5],cleaved PARP positive nuclei fraction [6]
"NC(=O)c1ccc(N(C(N)=O)c2c(F)cccc2F)nc1-c1ccc(F)cc1F + Cc1nc(Nc2ncc(C(=O)Nc3c(C)cccc3Cl)s2)cc(N2CCN(CCO)CC2)n1 [dasatanib] (first compound 0.4 µM, partner dose 0.004 µM)",140%,31.1%,120%,395%,104%,130%
"COc1ccc(C2=N[C@@H](c3ccc(Cl)cc3)[C@@H](c3ccc(Cl)cc3)N2C(=O)N2CCNC(=O)C2)c(OC(C)C)c1 [Nutlin-3] + Cn1c(=O)n(-c2ccc(C(C)(C)C#N)cc2)c2c3cc(-c4cnc5ccccc5c4)ccc3ncc21 [NVP-BEZ235] (first compound 0.1 µM, partner dose 0.004 µM)",144%,250%,89.7%,80%,92%,43.1%
